Results as given in publication PMC3514318.
Results are given in words; binding and its absence hold for the method and conditions named. Binding seen in cells or lysates may run through a third protein. A result given as binding can be weak or reduced; the word gives no strength. Where a sequence is shown, tags or fusion partners need not be part of it.

Amino acid sequences for entries named in this document (tags omitted). A change or cut given only in a name is not applied to a line headed by its entry.
UniProt Q9NB71: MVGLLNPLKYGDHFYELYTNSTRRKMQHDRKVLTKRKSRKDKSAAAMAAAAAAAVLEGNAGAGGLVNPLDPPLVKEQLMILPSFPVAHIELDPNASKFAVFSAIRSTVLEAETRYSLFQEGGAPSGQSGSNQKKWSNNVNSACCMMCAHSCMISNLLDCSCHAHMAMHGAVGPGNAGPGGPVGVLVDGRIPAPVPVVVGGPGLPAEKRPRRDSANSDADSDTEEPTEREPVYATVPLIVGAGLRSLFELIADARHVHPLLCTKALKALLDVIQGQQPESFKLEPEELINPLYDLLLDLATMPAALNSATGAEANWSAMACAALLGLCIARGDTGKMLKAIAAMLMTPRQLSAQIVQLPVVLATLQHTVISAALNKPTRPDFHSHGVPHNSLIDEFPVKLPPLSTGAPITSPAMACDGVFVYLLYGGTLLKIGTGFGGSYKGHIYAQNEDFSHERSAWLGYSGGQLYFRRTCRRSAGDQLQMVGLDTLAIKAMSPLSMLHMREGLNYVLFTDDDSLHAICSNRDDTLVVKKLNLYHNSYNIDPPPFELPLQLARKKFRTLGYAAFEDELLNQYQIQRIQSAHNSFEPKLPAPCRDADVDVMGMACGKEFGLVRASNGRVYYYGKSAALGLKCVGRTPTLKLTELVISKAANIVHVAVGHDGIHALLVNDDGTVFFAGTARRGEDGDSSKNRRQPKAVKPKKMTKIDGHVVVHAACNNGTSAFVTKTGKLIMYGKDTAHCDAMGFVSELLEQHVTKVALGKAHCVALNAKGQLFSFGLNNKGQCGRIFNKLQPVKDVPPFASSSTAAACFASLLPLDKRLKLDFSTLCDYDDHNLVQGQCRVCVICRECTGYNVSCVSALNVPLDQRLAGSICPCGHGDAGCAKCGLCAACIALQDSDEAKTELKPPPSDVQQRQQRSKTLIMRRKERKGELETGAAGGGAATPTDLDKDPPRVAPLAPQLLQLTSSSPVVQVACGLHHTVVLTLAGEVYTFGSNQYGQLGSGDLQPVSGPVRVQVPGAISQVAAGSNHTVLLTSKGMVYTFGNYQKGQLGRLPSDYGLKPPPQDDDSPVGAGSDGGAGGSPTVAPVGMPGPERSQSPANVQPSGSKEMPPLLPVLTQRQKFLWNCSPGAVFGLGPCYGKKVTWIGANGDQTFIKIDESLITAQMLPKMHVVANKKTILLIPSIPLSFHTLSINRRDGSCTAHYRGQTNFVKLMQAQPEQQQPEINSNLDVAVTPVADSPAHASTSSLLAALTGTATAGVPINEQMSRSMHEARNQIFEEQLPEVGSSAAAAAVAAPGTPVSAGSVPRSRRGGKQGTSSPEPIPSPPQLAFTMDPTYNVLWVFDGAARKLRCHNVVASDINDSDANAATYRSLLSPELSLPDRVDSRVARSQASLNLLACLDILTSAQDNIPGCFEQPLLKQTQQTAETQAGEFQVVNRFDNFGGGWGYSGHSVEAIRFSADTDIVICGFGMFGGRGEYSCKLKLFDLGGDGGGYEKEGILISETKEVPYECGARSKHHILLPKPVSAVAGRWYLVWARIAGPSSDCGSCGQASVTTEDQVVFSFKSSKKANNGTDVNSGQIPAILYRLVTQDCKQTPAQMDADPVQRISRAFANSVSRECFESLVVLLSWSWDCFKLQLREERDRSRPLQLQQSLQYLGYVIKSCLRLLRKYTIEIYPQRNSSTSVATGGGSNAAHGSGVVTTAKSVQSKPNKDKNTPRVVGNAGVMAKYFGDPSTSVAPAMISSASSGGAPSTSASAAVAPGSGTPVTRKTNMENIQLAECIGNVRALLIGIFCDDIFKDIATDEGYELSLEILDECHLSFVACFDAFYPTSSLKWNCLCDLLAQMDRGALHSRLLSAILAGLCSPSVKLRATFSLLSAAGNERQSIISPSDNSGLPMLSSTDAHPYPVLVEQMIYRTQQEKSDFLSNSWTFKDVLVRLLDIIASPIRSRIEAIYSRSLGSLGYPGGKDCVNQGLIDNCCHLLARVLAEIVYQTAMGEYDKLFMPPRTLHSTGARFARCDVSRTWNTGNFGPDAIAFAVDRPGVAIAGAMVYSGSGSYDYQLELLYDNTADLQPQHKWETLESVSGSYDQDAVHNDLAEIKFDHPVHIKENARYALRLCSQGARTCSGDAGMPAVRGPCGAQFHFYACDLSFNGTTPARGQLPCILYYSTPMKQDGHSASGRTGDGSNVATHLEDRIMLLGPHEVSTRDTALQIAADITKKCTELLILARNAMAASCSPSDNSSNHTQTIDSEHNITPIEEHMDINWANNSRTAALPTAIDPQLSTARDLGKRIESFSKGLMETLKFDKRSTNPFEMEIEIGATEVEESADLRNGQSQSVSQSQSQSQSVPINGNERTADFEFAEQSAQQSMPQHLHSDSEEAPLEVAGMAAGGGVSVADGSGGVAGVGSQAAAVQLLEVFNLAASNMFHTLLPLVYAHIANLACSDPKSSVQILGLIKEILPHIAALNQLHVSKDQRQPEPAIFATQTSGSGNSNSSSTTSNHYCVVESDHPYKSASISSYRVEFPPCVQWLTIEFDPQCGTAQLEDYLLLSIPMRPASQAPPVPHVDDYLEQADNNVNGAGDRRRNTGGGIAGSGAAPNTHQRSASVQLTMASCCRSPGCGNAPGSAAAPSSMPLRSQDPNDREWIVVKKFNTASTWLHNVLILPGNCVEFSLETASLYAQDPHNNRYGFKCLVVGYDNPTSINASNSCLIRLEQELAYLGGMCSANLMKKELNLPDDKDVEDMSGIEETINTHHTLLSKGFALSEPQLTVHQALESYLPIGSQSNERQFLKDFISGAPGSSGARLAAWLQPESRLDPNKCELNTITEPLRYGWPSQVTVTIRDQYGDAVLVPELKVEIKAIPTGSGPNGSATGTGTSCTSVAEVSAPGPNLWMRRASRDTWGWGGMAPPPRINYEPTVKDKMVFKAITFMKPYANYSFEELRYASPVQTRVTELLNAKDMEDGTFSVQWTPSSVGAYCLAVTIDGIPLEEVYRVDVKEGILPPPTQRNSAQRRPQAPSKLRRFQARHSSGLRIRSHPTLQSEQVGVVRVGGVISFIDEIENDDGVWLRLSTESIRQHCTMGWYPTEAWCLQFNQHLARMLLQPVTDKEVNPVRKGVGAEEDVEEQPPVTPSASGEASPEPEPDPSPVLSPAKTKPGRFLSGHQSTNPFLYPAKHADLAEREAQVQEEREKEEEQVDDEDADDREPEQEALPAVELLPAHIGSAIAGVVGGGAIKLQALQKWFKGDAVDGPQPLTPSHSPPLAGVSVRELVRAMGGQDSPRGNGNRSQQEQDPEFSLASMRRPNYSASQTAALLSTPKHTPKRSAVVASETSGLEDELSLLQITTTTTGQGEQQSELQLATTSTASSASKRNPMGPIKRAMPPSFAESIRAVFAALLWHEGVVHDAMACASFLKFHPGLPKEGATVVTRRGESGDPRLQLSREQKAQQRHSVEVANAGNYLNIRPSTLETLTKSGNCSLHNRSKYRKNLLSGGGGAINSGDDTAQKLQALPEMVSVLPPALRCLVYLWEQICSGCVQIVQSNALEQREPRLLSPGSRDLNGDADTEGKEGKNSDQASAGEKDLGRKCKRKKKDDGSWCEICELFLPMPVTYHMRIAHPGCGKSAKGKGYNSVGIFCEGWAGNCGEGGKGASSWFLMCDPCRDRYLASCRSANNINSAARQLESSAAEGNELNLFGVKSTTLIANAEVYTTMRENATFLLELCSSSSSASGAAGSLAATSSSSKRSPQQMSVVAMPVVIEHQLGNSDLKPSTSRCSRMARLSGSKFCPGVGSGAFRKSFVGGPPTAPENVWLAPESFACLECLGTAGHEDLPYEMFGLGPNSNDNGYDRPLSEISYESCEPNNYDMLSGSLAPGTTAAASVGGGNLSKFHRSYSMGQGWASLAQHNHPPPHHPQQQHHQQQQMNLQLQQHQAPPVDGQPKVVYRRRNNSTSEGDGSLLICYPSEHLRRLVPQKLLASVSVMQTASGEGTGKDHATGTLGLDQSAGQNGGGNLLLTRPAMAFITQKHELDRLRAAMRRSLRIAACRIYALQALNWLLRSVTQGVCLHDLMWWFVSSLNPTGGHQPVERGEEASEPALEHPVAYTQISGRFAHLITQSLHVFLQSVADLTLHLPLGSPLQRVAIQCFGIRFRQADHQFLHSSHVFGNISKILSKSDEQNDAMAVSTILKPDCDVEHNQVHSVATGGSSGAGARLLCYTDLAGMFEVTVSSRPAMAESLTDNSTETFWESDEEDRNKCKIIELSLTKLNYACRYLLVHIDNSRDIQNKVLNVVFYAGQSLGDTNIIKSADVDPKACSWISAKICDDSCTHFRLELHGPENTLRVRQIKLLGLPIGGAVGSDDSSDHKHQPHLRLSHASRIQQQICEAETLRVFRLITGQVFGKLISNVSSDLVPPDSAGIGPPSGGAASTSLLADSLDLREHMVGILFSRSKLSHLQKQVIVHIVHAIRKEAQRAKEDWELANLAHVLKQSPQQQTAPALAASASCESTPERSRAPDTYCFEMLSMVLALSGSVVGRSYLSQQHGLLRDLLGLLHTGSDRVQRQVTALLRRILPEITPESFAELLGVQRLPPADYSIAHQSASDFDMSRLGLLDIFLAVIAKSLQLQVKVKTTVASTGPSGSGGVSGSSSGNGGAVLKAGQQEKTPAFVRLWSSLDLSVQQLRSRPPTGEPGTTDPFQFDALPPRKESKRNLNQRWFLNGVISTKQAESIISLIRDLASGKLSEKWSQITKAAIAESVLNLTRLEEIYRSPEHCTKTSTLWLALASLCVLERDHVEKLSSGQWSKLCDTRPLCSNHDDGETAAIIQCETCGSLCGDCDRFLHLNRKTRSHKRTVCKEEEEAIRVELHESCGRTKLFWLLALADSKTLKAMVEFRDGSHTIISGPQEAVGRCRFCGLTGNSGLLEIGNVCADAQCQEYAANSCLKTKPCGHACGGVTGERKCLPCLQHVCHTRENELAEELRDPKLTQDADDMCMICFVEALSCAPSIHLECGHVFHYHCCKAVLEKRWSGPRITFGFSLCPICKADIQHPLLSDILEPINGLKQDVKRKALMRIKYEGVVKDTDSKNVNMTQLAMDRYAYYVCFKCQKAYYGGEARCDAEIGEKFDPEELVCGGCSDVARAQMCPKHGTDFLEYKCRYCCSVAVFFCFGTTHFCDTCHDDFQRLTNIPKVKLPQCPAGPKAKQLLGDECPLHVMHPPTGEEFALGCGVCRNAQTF

Molecular target: T1, HA-Nmnat (Drosophila nicotinamide mononucleotide adenyltransferase, HA-tagged) (Drosophila) (UniProt Q9VC03)
T1 sequence: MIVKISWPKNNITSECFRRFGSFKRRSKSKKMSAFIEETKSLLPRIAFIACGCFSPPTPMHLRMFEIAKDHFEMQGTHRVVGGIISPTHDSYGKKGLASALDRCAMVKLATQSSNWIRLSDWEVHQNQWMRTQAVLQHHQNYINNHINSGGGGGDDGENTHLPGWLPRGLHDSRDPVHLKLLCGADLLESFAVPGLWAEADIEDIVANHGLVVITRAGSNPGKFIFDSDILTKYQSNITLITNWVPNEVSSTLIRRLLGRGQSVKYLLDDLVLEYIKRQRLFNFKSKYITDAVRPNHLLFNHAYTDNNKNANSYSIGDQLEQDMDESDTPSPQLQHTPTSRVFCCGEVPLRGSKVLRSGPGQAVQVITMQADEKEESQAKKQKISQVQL
Test: co-IP; S2R+ cell lysates, either co-transfected with pUAST-HA::Nmnat and pUAST-Hiw-ΔRING or mixed lysates from individual transfections; HA-Nmnat immunoprecipitated with mouse anti-HA (HA-7) on Protein G Dynabeads, 30 min at room temperature; lysis buffer 20 mM HEPES pH 7.5, 200 mM KCl, 0.05% Triton X-100, 2.5 mM EDTA, 5 mM DTT, 5% glycerol; Western blot with anti-Hiw

binding: binds
Substance: Hiw-ΔRING (Highwire mutated for conserved cysteines in the RING domain) (from UniProt Q9NB71) (enzyme)
